Here are results for 62 compounds from PubChem BioAssay AID2685 (National Center for Advancing Translational Sciences (NCATS), 2010).

This is one part of the list. Shown are side measurements of this screen, not its main read-out; they come without a call. Compounds called inactive in the main read-out are mostly missing here. Words in brackets tell the shape of the fitted curve; partial curves, single points and poor fits give uncertain potencies.

This assay in a line: qHTS Assay for Lipid Storage Modulators in Drosophila S3 Cells.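 For cell number change: cells counted by Cell Tracker Red CMTPX staining in the red channel.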 Particulars: BODIPY lipid droplet fluorescence, 18-24 h; for cell number change: measured here: cell count max response, cells fed with added oleic acid. Put shortly:
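Drosophila S3 cells got compounds at several concentrations plus oleic acid (400 uM solution). Laser-scanning cytometry with 488 nm excitation read lipid droplets at 500-530 nm and cells at 575-640 nm. Percent activity was relative to 20 uM Triacsin C.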

Where [1] appears, read: measured here: lipid fluorescence (Fed channel) AC50, cells fed with added oleic acid.
[2] abbreviates: measured here: cell number channel AC50, cells fed with added oleic acid.

Regarding `CCC(=NCCc1c(C)[nH]c2ccc(OC(F)(F)F)cc12)C1=C(O)CC(c2ccccc2)CC1=O` (stereo unspecified), the cell number change is -28.5%. Further, under setting [1], the AC50 was 18400 nM [falling, single point].

`CC(=O)N1Cc2[nH]c3ccccc3c2CC1C(=O)O` (stereo unspecified): the cell number change amounted to 1.29%. Also, under setting [1], the AC50 was 4.61 nM [falling, full curve, poor fit].

As for `CC1C(=O)N2CCCc3cc(NC(=O)C(=O)NCCc4ccccc4)cc1c32` (stereo unspecified), the cell number change is -10.8%. Further, under setting [2], the AC50 was 7310 nM [falling, single point]. Also, the AC50 under setting [1] was 731 nM [falling, partial curve, poor fit]. Consider `O=C(Nc1ccc([N+](=O)[O-])cn1)C1CC1`, for which the cell number change is -3.48%.

As to `Clc1ccc(C2Nc3cccc4cccc(c34)N2)cc1Cl`, the cell number change is -17.9%. Besides, the AC50 under setting [1] is 6510 nM [rising, single point]. Consider `COc1ccc(Nc2nc3ccc(C)cc3n3cnnc23)cc1Cl`, for which the cell number change stood at 127%. Moreover, the AC50 under setting [2] was 29100 nM [rising, single point]. In addition, the AC50 under setting [1] is 23100 nM [rising, single point]. `O=C1ON=C(c2ccc(Cl)cc2)/C1=C/c1ccc(O)cc1`: the cell number change is -29.5%. Moreover, the AC50 under setting [1] is 29100 nM [falling, partial curve, poor fit]. Consider `Cc1cccc(NC(=O)CSc2nnc(CNC(=O)c3ccco3)o2)c1C`, for which the cell number change was -2.83%. Under setting [2], the AC50 was 259 nM [rising, partial curve, poor fit]. Further, under setting [1], the AC50 was 580 nM [falling, single point]. Take `Cc1csc(NC(=O)COc2ccc3c(c2)CCC3)n1`: the cell number change was -33.8%. In addition, the AC50 under setting [2] is 18400 nM [falling, partial curve, poor fit]. Moreover, under setting [1], the AC50 is 29100 nM [rising, single point]. Consider `COc1ccc(OC)c(NC(=O)CSc2nccn2Cc2ccco2)c1`, for which the cell number change is -10.1%. Consider `COCCN(C(=O)c1cccc(N2C(=O)CCC2=O)c1)c1nc(-c2ccc([N+](=O)[O-])cc2)cs1`, for which, under setting [2], the AC50 was 1030 nM [rising, partial curve, poor fit]. Turning to `N#Cc1ccc(OCC(=O)Nc2ccc3[nH]c(=O)[nH]c3c2)cc1`, the cell number change was -17.1%. Further, the AC50 under setting [2] is 517 nM [falling, full curve]. Besides, the AC50 under setting [1] is 461 nM [falling, full curve, poor fit]. Regarding `CN=C1c2c(-c3ccccc3)c3cc(OC)ccc3n2CCN1C`, the cell number change was -1.29%. Besides, the AC50 under setting [1] is 6.51 nM [falling, full curve, poor fit]. Regarding `COc1ccc(C(=O)NCCc2ccccc2F)cc1OC1CCN(C(C)=O)CC1`, the cell number change worked out at 25.2%. The AC50 under setting [1] is 7310 nM [rising, partial curve, poor fit]. For `Cc1cc2c([nH]c3ccccc32)c(C)n1`, the cell number change is -6.56%. For `C[C@H]1CCC[C@]2(CC(=O)c3cc(F)ccc3O2)C1`, the cell number change is -45.8%. Further, the AC50 under setting [2] is 29100 nM [falling, partial curve, poor fit]. Also, the AC50 under setting [1] is 6510 nM [falling, single point].

`O=C(N1CCOCC1)n1nnc2ccccc21`: the cell number change was -14%. Under setting [1], the concentration at half-maximal activity (AC50) was 3260 nM [falling, single point]. `Cc1ccc2nc(NC(=O)c3ccco3)sc2c1`: the AC50 is 1300 nM [rising, partial curve] under setting [2] and 32600 nM [rising, single point] under setting [1].

For the compound `CC(C)c1ccc(/C=C2\SC(=O)N(CC(=O)NC3C=CS(=O)(=O)C3)C2=O)cc1` (stereo unspecified), the concentration at half-maximal activity (AC50) under setting [1] was 4110 nM [falling, partial curve].

In the case of `CCC(C)NC(=O)CSc1ncccc1C(=O)O` (stereo unspecified), the cell number change was -14.6%.

Regarding `CCn1cc(C(=O)NCc2ccc(OC)cc2OC)c(=O)c2ccc(C)nc21`, the cell number change worked out at 17.1%. Further, the AC50 under setting [1] was 820 nM [rising, single point]. On to `CCCCCOc1ccc(/C=C/C(=O)NCCc2nc3ccccc3[nH]2)cc1OC`, for which the AC50 under setting [1] is 1840 nM [falling, partial curve]. Consider `S=C(NCCc1ccccc1)N1CCN(C2CCCCC2)CC1`, for which the cell number change came out at 22.7%. Further, the AC50 under setting [2] is 820 nM [falling, single point]. As for `CCN(CC)S(=O)(=O)c1ccc(N2CCCC2)c(NC(=O)Cc2cc(OC)c(OC)c(OC)c2)c1`, the cell number change was 8.97%. Besides, under setting [1], the AC50 is 65.1 nM [rising, full curve, poor fit]. In the case of `C/C(=N\NC(=O)C1CC1(C)c1ccccc1)c1ccco1` (stereo unspecified), the cell number change came out at 13%. For the same compound, the AC50 under setting [1] is 92 nM [rising, full curve, poor fit]. As to `O=C(CCC(=O)c1ccc(F)cc1)NCc1ccccc1C(F)(F)F`, the cell number change was -22.4%. Also, under setting [1], the AC50 is 16400 nM [rising, single point].

For the compound `CC(=O)c1c(C(C)=O)c(C)n(NC(=O)c2ccccc2O)c1C`, the cell number change is -5.89%. Further, the AC50 under setting [1] is 6510 nM [falling, single point]. Regarding `O=C(O)Cc1nc(-c2cccnc2)sc1-c1ccc(Br)cc1`, the cell number change is 24.4%. Under setting [1], the concentration at half-maximal activity (AC50) is 1300 nM [rising, full curve, poor fit]. With `CCOC(=O)C(O)(CC(=O)c1ccc(Cl)cc1)C(=O)OCC`, the cell number change was -38.6%. The AC50 under setting [2] was 29100 nM [falling, single point]. Take `C/C(=N/NC(=O)c1ccccc1)c1ccc(NC(=O)C(F)(F)F)cc1`: the cell number change stood at 6.05%. Regarding `O=C(NC1CCSc2ccccc21)c1cccc(OC(F)F)c1` (stereo unspecified), the cell number change was 5.83%. Under setting [1], the AC50 was 23100 nM [rising, single point].

As to `COc1ccccc1-c1noc(Cn2cc(S(=O)(=O)N3CCCC3)ccc2=O)n1`, the cell number change turned out to be 4.42%.

As for `Cc1nc2ccccn2c(=O)c1NC(=O)c1cccc2ccccc12`, under setting [1], the AC50 is 6510 nM [rising, single point].

As to `Cc1ccc(CNC(=O)C2CCC(=O)N(CCc3cccc(F)c3)C2)s1` (stereo unspecified), the cell number change is -4.97%. Moreover, the AC50 under setting [1] is 6510 nM [falling, single point].

Turning to `Cc1ccc(NC(=S)NNC(=O)c2nn(C)cc2Cl)cc1`, the cell number change is -18.9%. Under setting [1], the AC50 is 580 nM [falling, full curve, poor fit].

On to `Cc1ccccc1CN1CCC(Oc2ccc(C(=O)NCc3ccccn3)cc2)CC1`, for which the cell number change is -13.1%. In the case of `c1ccc(N2CCOCC2)c(Nc2nc3ccccc3n3cnnc23)c1`, the AC50 under setting [2] is 580 nM [rising, single point].

With `CCCCn1c(N)c(N(CC(C)C)C(=O)CN2C(=O)NC3(CC(C)CC(C)(C)C3)C2=O)c(=O)[nH]c1=O` (stereo unspecified), the cell number change turned out to be 5.97%. For `COCCNS(=O)(=O)c1ccc(Cl)c(C(=O)NC2CCN(Cc3ccccc3)CC2)c1`, under setting [2], the AC50 was 231 nM [rising, full curve]. Turning to `O=C(CCNS(=O)(=O)c1ccccc1)N1CCN(c2ccccc2F)CC1`, the cell number change came to 8.78%. For the same compound, the AC50 under setting [2] was 164 nM [rising, full curve]. For the same compound, the AC50 under setting [1] was 73.1 nM [rising, full curve, poor fit].

For the compound `CC(=O)c1ccc(NC(=O)CNCC(c2ccccc2)N(C)C)cc1` (stereo unspecified), the cell number change is -5.73%. For the same compound, the AC50 under setting [1] was 291 nM [falling, full curve, poor fit]. On to `COc1ccc(OCCSc2nc(C)nc3ccccc23)cc1`, for which the cell number change was found to be 6.95%. With `CCOC(=O)N1CCN(Cc2nc(N)nc(Nc3ccc(Cl)cc3)n2)CC1`, the cell number change is 21.1%. In addition, under setting [1], the AC50 was 16400 nM [rising, single point]. In the case of `Cc1noc(C)c1S(=O)(=O)N1CCC(C(=O)N2CCN(C(=O)c3ccco3)CC2)CC1`, the cell number change was 4.73%. Regarding `Cc1ccc(-c2cc(C(=O)N/N=C/c3cccnc3)n[nH]2)o1`, the cell number change was -2.18%. For the same compound, under setting [1], the AC50 was 2060 nM [rising, partial curve].

In the case of `O=C(O)c1cccc(NS(=O)(=O)c2ccc(NC(=O)c3ccco3)cc2)c1`, the cell number change stood at 78%. Also, the AC50 under setting [2] was 4.11 nM [rising, full curve, poor fit]. With `N#Cc1ccc(NC(=O)COC(=O)c2ccc(F)c(S(=O)(=O)N3CCOCC3)c2)cc1`, the cell number change stood at 7.22%. Besides, the AC50 under setting [1] is 517 nM [rising, single point]. Regarding `O=C(O)C1CCCCC1C(=O)NCc1ccc(F)cc1` (stereo unspecified), the cell number change was -26.3%. Under setting [2], the AC50 is 4110 nM [falling, full curve, poor fit]. `COc1ccc(OCC(=O)Nc2cc(S(=O)(=O)N3CCCC3)ccc2OCC(F)(F)F)cc1`: the cell number change is -5.62%. In the case of `Cc1cc(NC(=O)C2CCCN(S(=O)(=O)c3c(C)noc3C)C2)n[nH]1` (stereo unspecified), the cell number change was -1.1%. As for `CC1CCN(C(=O)C(C)c2ccc([N+](=O)[O-])cc2)CC1` (stereo unspecified), the cell number change is -7.46%. Consider `COc1ccc(/C=C2/SC(c3ccc(C)cc3)=NC2=O)cc1OC`, for which the AC50 under setting [1] was 29100 nM [rising, single point]. With `COc1ccc(OCc2nnc(SCC(=O)Nc3nnc(C4CC4)s3)n2C)cc1`, the cell number change amounted to 2.1%. The half-maximal activity concentration (AC50) under setting [1] is 29100 nM [falling, single point].

In the case of `O=C(Oc1ccc(F)cc1C(=O)/C=C/c1cccs1)c1cccc([N+](=O)[O-])c1`, the cell number change was -17.5%. In the case of `COc1ccc(-c2csc(/N=C/N(C)C)n2)cc1OC`, the AC50 by setting is: under setting [2], 116 nM [rising, single point]; under setting [1], 103 nM [rising, partial curve, poor fit].

As for `Cc1ccc(NC(=O)NCCN2CCCCC2)cc1C`, the cell number change was determined as 9.33%. The half-maximal activity concentration (AC50) under setting [1] was 731 nM [falling, single point]. In the case of `O=C(Nc1ccccc1)OC1CCC2CC1CCC2OC(=O)Nc1ccccc1` (stereo unspecified), the cell number change stood at 10.9%. The AC50 under setting [2] is 1460 nM [rising, full curve, poor fit]. The AC50 under setting [1] is 1640 nM [rising, full curve].

As for `O=C(CCNC(=O)c1ccc([N+](=O)[O-])cc1)Nc1ccc(N2CCOCC2)cc1N1CCOCC1`, the cell number change was -48.3%. Further, under setting [2], the AC50 is 29100 nM [falling, single point]. On to `CO/N=C/C(C#N)=C/c1ccc(OC)c(OC)c1`, for which the cell number change is 29%. Besides, under setting [1], the AC50 was 2590 nM [rising, full curve]. In the case of `CSCCC(NC(=O)c1ccccc1)C(=O)NNC(=O)c1csc(N2CCOCC2)n1` (stereo unspecified), the cell number change is -12.7%. Moreover, the AC50 under setting [1] is 29100 nM [rising, single point]. Turning to `C=CCNC1=C(Cl)C(=O)c2ccccc2C1=O`, the cell number change was -10.7%. Moreover, under setting [2], the AC50 is 6510 nM [falling, single point]. Moreover, the AC50 under setting [1] is 3260 nM [falling, single point]. As for `CCc1ccc(-c2nc(CS(=O)CC(=O)O)c(C)o2)cc1` (stereo unspecified), under setting [1], the AC50 was 23100 nM [falling, single point].
